This list holds what a sample rich in targets with a hit left over. This is a noisy data set. The list shows a part of the results, in another mix than the full data.
compound: COC(=O)/C=C/c1ccccc1 [methyl cinnamate]; assay: log2 ratio of iodoacetamide-alkyne labeling of the cysteine site, DMSO over compound (competition); higher = stronger covalent engagement of the cysteine by the compound, active = 1 or more; settings: 500 µM; treatment time 1 h; system: HEK293T cell lysate
Method in brief: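 Electrophile (500 µM) or vehicle was added to HEK293T lysate (2 mg/mL) for 1 h at ambient temperature before iodoacetamide alkyne labelling (1 h) and click coupling to sCIP-TMT reagents. After pooling, overnight trypsin digestion at 37 °C, streptavidin enrichment and acid elution, peptides were measured by Orbitrap Eclipse LC-MS/MS with FAIMS and quantified in FragPipe. Each cysteine's log2 competition ratio compares mean control-channel with mean compound-channel reporter intensity, control over compound. Data came from duplicate channels across three replicates, excluding cysteines quantified in only one replicate.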

Protein sequences, listed by entry. Tags and fused reporters are not part of them. Lines headed by an entry give the natural chain unless they say otherwise; changes in a name come on top.
UniProt Q9UBD5: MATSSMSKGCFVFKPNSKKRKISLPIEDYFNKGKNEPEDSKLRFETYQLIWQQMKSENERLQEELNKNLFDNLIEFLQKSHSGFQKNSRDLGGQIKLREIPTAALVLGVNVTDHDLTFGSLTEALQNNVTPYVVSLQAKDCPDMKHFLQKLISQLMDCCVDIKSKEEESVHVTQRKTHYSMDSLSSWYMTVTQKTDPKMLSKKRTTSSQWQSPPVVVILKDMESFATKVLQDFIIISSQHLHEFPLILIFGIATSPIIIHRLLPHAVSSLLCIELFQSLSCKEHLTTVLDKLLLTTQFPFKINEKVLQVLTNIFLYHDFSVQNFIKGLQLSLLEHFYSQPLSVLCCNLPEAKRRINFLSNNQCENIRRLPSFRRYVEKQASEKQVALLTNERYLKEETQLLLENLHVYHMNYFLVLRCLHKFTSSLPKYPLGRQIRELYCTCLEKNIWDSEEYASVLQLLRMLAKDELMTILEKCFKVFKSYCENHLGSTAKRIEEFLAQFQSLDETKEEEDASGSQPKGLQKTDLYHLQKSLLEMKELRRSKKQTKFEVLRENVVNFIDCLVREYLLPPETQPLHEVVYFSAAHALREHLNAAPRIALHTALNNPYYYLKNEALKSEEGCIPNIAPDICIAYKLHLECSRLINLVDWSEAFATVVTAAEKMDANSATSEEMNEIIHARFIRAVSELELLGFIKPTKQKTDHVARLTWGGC
UniProt Q9UGP4: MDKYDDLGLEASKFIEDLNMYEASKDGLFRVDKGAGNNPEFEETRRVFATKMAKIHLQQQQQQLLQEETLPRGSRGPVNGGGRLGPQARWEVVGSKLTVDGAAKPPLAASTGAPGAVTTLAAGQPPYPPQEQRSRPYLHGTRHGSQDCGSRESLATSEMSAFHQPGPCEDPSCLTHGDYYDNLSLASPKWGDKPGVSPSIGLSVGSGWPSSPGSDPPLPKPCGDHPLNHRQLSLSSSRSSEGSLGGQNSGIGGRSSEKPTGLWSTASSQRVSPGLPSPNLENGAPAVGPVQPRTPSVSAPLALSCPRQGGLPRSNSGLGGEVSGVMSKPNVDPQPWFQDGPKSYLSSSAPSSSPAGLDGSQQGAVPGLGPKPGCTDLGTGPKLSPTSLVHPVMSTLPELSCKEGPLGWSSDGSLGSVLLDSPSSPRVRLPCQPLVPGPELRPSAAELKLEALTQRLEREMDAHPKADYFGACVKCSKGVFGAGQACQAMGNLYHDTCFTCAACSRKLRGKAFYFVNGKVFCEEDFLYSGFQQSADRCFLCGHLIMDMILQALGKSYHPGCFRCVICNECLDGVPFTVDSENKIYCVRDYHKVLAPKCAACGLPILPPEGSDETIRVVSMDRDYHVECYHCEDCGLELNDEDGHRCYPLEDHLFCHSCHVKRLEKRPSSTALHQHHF
UniProt Q9UHB4: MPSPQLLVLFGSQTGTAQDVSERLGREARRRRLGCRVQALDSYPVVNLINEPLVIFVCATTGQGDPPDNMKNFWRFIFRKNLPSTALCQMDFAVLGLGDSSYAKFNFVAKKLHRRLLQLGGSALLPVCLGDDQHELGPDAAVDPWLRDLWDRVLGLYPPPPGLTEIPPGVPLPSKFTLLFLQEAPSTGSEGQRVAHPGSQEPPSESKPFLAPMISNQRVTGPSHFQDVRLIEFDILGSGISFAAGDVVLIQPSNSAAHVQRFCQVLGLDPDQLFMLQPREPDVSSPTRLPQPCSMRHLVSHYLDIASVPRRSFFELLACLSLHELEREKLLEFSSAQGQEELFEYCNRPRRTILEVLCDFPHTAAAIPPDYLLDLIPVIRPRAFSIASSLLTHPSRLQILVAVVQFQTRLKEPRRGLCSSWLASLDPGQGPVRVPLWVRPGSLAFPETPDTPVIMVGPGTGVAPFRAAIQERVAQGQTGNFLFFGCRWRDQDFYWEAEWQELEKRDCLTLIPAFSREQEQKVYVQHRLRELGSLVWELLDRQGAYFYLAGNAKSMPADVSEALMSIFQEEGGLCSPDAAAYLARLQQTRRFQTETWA
UniProt Q9NVA2: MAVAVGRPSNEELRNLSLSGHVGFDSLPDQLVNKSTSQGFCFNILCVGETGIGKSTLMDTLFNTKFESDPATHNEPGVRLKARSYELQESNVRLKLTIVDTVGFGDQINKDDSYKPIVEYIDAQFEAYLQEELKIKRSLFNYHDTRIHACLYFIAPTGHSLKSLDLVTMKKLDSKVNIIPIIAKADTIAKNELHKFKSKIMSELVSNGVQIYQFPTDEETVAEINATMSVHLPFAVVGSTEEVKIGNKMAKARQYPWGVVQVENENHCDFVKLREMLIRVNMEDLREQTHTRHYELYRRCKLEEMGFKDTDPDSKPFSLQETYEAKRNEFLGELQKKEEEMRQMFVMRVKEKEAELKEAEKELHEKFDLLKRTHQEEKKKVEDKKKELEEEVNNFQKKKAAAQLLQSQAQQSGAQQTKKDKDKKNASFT
UniProt Q9UGI8: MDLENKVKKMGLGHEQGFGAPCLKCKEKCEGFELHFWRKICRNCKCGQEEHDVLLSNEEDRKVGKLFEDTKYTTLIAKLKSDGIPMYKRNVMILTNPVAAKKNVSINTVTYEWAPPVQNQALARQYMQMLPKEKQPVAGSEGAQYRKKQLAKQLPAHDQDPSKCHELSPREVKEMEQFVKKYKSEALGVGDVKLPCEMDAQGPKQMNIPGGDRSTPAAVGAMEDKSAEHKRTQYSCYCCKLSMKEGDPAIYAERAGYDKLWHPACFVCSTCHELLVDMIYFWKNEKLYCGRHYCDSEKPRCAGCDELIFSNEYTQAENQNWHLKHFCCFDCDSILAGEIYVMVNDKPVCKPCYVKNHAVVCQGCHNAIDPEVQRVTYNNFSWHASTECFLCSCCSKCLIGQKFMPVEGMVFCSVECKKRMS
UniProt Q9UH62: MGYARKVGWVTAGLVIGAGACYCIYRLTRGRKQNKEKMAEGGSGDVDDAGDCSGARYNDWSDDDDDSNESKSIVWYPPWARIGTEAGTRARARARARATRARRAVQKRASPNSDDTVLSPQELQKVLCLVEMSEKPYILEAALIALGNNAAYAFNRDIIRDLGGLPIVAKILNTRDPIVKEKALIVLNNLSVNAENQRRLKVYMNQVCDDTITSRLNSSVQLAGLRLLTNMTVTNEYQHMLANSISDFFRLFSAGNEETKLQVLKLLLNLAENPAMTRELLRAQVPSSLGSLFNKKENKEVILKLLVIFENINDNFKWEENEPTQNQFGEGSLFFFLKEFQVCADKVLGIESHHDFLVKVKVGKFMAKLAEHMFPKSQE
UniProt Q9NVP2, whole entry, looked up: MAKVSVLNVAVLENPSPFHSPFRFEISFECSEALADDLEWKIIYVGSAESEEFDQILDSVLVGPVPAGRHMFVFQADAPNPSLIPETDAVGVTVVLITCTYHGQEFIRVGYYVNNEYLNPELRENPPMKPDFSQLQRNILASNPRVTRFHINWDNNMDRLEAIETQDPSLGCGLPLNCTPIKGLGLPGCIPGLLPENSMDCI
UniProt Q9NVH0: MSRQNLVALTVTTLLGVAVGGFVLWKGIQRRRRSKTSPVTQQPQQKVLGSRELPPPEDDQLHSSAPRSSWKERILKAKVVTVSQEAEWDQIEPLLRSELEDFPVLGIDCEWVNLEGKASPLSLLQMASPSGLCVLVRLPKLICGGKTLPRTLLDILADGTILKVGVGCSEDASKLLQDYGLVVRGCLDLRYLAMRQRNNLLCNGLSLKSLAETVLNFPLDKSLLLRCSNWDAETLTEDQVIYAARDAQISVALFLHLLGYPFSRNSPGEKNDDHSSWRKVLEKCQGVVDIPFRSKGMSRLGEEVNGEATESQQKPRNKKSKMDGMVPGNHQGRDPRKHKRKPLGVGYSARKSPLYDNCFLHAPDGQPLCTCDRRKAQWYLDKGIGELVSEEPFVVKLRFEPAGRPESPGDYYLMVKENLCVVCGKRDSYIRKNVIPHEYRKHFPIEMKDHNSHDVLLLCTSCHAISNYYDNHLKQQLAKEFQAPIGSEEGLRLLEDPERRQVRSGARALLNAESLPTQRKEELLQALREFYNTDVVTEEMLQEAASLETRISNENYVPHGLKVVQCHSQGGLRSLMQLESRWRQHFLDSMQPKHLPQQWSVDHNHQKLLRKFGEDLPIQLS
UniProt Q9NZT2: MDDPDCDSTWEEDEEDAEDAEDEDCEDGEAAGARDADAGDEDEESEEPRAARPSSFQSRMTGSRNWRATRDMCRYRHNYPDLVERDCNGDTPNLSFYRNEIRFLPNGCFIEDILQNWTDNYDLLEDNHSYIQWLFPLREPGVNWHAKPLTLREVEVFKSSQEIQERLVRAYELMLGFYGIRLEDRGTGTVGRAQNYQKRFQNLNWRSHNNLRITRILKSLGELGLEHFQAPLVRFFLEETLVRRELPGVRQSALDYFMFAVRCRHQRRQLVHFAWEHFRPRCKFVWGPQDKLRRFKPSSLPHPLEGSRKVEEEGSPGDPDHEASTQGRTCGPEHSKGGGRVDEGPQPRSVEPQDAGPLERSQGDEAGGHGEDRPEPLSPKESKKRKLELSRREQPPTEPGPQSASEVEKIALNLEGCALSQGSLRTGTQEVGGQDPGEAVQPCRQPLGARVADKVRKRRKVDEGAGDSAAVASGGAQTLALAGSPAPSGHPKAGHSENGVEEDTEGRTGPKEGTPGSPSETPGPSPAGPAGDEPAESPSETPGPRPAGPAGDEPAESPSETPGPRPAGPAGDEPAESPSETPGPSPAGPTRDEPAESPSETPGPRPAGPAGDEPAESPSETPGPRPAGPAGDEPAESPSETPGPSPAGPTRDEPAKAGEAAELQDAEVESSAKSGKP
UniProt Q9NW64: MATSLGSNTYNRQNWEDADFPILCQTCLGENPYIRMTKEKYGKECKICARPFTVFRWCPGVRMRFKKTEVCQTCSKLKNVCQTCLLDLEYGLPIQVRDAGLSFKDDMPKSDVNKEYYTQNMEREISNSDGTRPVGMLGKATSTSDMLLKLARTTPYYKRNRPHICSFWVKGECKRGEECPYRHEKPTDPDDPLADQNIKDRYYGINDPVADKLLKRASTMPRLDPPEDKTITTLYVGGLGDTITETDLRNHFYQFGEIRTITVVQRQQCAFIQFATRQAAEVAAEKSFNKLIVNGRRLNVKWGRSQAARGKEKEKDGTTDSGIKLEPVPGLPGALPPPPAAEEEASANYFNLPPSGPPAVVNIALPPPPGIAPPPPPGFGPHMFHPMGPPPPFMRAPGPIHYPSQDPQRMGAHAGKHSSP
UniProt Q9NXV2: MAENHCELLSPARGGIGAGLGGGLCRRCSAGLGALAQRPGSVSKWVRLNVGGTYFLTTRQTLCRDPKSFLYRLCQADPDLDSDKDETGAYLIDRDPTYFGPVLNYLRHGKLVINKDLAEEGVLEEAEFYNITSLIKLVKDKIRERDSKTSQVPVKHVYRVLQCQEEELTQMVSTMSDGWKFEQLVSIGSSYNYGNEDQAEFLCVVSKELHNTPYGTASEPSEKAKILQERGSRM
UniProt Q9NZB2: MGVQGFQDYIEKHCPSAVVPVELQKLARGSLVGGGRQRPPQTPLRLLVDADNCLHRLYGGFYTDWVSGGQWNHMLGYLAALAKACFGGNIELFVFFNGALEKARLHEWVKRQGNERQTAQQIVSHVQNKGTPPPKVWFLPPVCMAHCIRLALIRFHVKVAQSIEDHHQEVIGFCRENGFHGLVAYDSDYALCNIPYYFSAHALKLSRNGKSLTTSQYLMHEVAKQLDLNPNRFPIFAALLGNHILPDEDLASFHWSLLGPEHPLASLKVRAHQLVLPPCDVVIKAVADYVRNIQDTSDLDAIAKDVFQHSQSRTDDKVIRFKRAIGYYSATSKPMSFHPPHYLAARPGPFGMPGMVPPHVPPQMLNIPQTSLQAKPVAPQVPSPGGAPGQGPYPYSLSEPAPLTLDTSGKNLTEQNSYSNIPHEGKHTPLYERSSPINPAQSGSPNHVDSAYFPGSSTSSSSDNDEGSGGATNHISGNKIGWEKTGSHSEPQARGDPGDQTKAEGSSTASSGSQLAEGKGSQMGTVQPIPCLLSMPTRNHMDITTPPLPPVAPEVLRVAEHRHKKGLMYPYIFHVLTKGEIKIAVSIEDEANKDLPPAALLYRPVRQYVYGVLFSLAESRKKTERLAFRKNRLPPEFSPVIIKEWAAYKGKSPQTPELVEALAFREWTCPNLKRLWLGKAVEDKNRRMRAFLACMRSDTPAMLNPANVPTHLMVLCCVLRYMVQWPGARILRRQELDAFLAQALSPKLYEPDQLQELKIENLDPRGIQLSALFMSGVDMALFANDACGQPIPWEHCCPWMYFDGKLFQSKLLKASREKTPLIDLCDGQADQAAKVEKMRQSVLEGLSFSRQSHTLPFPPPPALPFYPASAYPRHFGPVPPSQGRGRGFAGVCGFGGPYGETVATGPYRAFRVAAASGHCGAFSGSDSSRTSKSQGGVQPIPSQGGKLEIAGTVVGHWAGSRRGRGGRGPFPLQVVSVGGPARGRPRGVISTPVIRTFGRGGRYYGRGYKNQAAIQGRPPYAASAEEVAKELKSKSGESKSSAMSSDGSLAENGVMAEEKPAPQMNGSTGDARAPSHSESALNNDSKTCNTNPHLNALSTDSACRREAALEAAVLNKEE

log2 ratio of iodoacetamide-alkyne labeling, inactive:
UniProt Q9UBD5_C158 0.679
LIMD1 C305 (UniProt Q9UGP4) 0.268
CHD7 C909 (UniProt Q9P2D1) 0.169
NDOR1 C507 (UniProt Q9UHB4) -0.463
TRMT1 C639 (UniProt Q9NXH9) 0.248
UniProt Q9UBC1_C304 0.222
VAPA C60 (UniProt Q9P0L0) -0.188
UniProt Q9UBD5_C363 0.11
UniProt Q9NVA2_C41 -0.193
TES C164 (UniProt Q9UGI8) -0.117
ALKBH4 C159 (UniProt Q9NXW9) 0.101
TRMT1 C86 (UniProt Q9NXH9) 0.123
ATXN10 C165 (UniProt Q9UBB4) 0.246
ARMCX3 C52 (UniProt Q9UH62) 0.619
ITSN2 C810 (UniProt Q9NZM3) 0.0589
ADPRHL2 C287 (UniProt Q9NX46) -0.109
ABCF3 C4 (UniProt Q9NUQ8) 0.176
ASF1B C172 (UniProt Q9NVP2) 0.387
NDRG3 C359 (UniProt Q9UGV2) 0.402
MED17 C110 (UniProt Q9NVC6) 0.0885
UniProt Q9NVH0_C284 0.296
DDX56 C286 (UniProt Q9NY93) 0.0614
SLTM C568 (UniProt Q9NWH9) 0.0176
ATXN10 C283 (UniProt Q9UBB4) 0.127
IRAK4 C13 (UniProt Q9NWZ3) 0.0438
OGFR C330 (UniProt Q9NZT2) 0.44
UniProt Q9NW64_C84 -0.297
LARS C522 (UniProt Q9P2J5) -0.214
ASF1B C189 (UniProt Q9NVP2) -0.224
KCTD5 C6 (UniProt Q9NXV2) 0.12
UniProt Q9NW64_C24 0.141
USP36 C977 (UniProt Q9P275) 0.15
GNL3L C518 (UniProt Q9NVN8) 0.335
FAM120A C669 (UniProt Q9NZB2) -0.0232
TES C196 (UniProt Q9UGI8) 0.188
MTPAP C412 (UniProt Q9NVV4) 0.246
TBC1D13 C131 (UniProt Q9NVG8) 0.0195

As a working copy, part of the list above:
log2 ratio of iodoacetamide-alkyne labeling, inactive:
NDRG3 C359 (UniProt Q9UGV2) 0.402
MED17 C110 (UniProt Q9NVC6) 0.0885
